# Data source: PubChem BioAssay AID1671195 (Yale University, 2021)
# Screen: 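Knockdowns that increase or decrease uptake of fluorescent LDL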 (primary screen)
# System: human Huh7 hepatoma cells
# Knock-down reagent: siRNA pool against human genes, 18 nM
# Duration: about 2 to 2.5 days of knockdown, then 8 h LDL uptake
# Challenge: DiI-labelled LDL at 30 µg/ml for 8 h, in lipoprotein-deficient serum medium
# Measured: 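Per-cell DiI-LDL intensity by automated imaging; well means scaled to the plate median and given as a robust z-score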
# Scale: robust z-score: higher = more LDL uptake after knockdown
# Active means: 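a gene counts as active if at least two replicate z-scores exceed ±2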
# Shown is an unselected part of about 22,000 reagents tested. About 1,510 of all reagents (6.9%) count as active. 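Active includes knockdowns raising or lowering LDL uptake; positive z-scores mean more uptake, negative mean less.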 Reagent sequences are not shown.
gene knocked down,"robust z-score, replicate 1","robust z-score, replicate 2","robust z-score, replicate 3",Outcome
TEPSIN (TEPSIN adaptor related protein complex 4 accessory protein),-0.11,0.683,0.518,inactive
RRAD,-0.441,-1.99,-0.873,inactive
PKP4 (plakophilin 4),-0.761,0.555,-0.53,inactive
EML2 (EMAP like 2),0.312,0.766,0.481,inactive
ZNF705A (zinc finger protein 705A),0.664,0.453,0.258,inactive
ZNF892 (zinc finger protein 892),0.381,0.101,0.355,inactive
PHF7 (PHD finger protein 7),2.58,2.66,2.08,active
TPRN (taperin),2.48,1.38,1.92,active
IARS1 (isoleucyl-tRNA synthetase 1),0.212,0.198,0.323,inactive
SLCO1B1,0.263,-0.174,-0.148,inactive
ARL15 (ARF like GTPase 15),1.03,0.356,0.336,inactive
MC5R (melanocortin 5 receptor),1.22,1.87,0.745,inactive
SLC71A3P,-0.561,-0.0939,-0.65,inactive
DEFB113 (defensin beta 113),-0.925,-0.749,-0.758,inactive
TBC1D31 (TBC1 domain family member 31),1.8,1.59,1.28,inactive
HMGCLL1 (3-hydroxy-3-methylglutaryl-CoA lyase like 1),0.0299,-1.11,0.646,inactive
CIAPIN1 (cytokine induced apoptosis inhibitor 1),-0.235,-0.986,-1.42,inactive
COPS5 (COP9 signalosome subunit 5),0.393,0.655,0.896,inactive
MYL6 (myosin light chain 6),2.27,3.08,0.892,active
TDRD10 (tudor domain containing 10),1.26,0.269,-0.528,inactive
STARD4 (StAR related lipid transfer domain containing 4),0.644,2.1,0.518,inactive
ARMC12 (armadillo repeat containing 12),1.06,0.9,1.12,inactive
"PIM1 (Pim-1 proto-oncogene, serine/threonine kinase)",-1.51,-1.55,-1.84,inactive
LOC442643 (retired record),-1.05,-1.3,-1.73,inactive
CITED1 (Cbp/p300 interacting transactivator with ED-rich tail 1),0.526,-2.02,-1.47,inactive
MESP1 (mesoderm posterior bHLH transcription factor 1),1.04,-1.25,0.477,inactive
RPL23P5 (ribosomal protein L23 pseudogene 5),0.488,0.714,-0.0279,inactive
PRLR (prolactin receptor),0.66,0.464,0.326,inactive
TRAF6 (TNF receptor associated factor 6),0.343,-0.907,-1.03,inactive
EBLN1 (endogenous Bornavirus like nucleoprotein 1),2.94,3.14,2.38,active
ZFC3H1 (zinc finger C3H1-type containing),-0.224,-0.565,1.39,inactive
ANO5 (anoctamin 5),-0.643,-0.816,-0.611,inactive
SUSD1 (sushi domain containing 1),0.69,-0.123,0.925,inactive
SLC48A1,1.51,-0.715,-0.014,inactive
SSNA1 (SS nuclear autoantigen 1),0.584,-0.969,-0.566,inactive
RNF130 (ring finger protein 130),-0.609,0.252,0.697,inactive
VASH2 (vasohibin 2),-1.13,-1.09,-0.971,inactive
PTRH2 (peptidyl-tRNA hydrolase 2),-0.429,0.394,0.169,inactive
ODAD3 (outer dynein arm docking complex subunit 3),-0.159,0.409,0.568,inactive
EFNB3 (ephrin B3),0.294,1.72,0.214,inactive
LOC151261 (retired record),0.959,0.462,0.493,inactive
RFC4 (replication factor C subunit 4),0.373,0.429,0.398,inactive
LOC339539,1.13,1.09,1.11,inactive
HHCM (Mahlavu hepatocellular carcinoma),1.35,-0.189,1.13,inactive
HEXIM2 (HEXIM P-TEFb complex subunit 2),0.973,1.35,1.47,inactive
LOC645733,0.271,0.333,0.00624,inactive
DAO (D-amino acid oxidase),-0.618,-0.0299,-0.551,inactive
FOXJ1 (forkhead box J1),-2.23,-2.33,-2.23,active
DPP10-AS1 (DPP10 antisense RNA 1),0.647,0.426,0.274,inactive
LPGAT1 (lysophosphatidylglycerol acyltransferase 1),-0.646,0.946,-1.21,inactive
GRK6 (G protein-coupled receptor kinase 6),-0.782,-1.59,-1.67,inactive
RPSAP10 (ribosomal protein SA pseudogene 10),1.24,-0.0245,0.168,inactive
HNF1B (HNF1 homeobox B),-0.546,-1.14,-1.27,inactive
SHC3 (SHC adaptor protein 3),0.138,2.47,-1.07,inactive
GMNN (geminin DNA replication inhibitor),1.16,-0.203,-2.07,inactive
UGT1A10 (UDP glucuronosyltransferase family 1 member A10),-0.112,0.178,0.72,inactive
LOC441035 (retired record),-0.227,-0.877,-0.619,inactive
NAXE (NAD(P)HX epimerase),4.11,1.67,3.37,active
GPX2 (glutathione peroxidase 2),1.6,1.63,0.957,inactive
AMN (amnion associated transmembrane protein),-0.987,-1.11,-1.29,inactive
FTH1 (ferritin heavy chain 1),-1.1,-2.04,-1.42,inactive
ATP6V0E1 (ATPase H+ transporting V0 subunit e1),0.982,0.495,0.888,inactive
OR13C3 (olfactory receptor family 13 subfamily C member 3),0.0918,-0.162,-0.065,inactive
CCDC148 (coiled-coil domain containing 148),1.03,2.51,1.76,inactive
S100B (S100 calcium binding protein B),-2.6,-2.46,-2.73,active
LOC100129603,0.858,2.17,1.14,inactive
RAD18 (RAD18 E3 ubiquitin protein ligase),-1.23,0.0596,0.407,inactive
CORO6 (coronin 6),-0.567,-0.427,-0.82,inactive
